US10633332B2, “Guanidine compounds for removal of oxyanions from aqueous solutions and for carbon dioxide capture” (UT-Battelle, LLC, priority 2010, dated 2020)

How the values were obtained:
[1] = Regeneration of amino acid sorbents by boiling under reflux
[2] = Regeneration of the amino acid sorbents with PyBIG; conditions: for Carbamate / Carbonate / Total CO2 / pH final: after stirring with PyBIG (0.5 molar equiv) for 24 hours; for pH initial: before stirring with PyBIG (0.5 molar equiv); for cyclic capacity: maximum CO2 loading after absorption minus minimum after regeneration with PyBIG
[3] = Direct air capture of CO2 with glycine and sarcosine (air humidifier); conditions: for pH initial / pH final: 1M aqueous potassium salt; for pH initial: CO2 loading; for pH final / Carbamate / Carbonate / Total CO2: after 24 hours CO2 loading; for total CO2 loading: after 24 hours

SMILES | total CO2 concentration ([1]; after 4 hours of refluxing) [M] | total CO2 concentration ([1]; after one hour of refluxing) [M] | Carbamate [2] [M] | Carbonate [2] [M] | Total CO2 [2] [M] | pH final [2] | pH initial [2] | cyclic capacity [2] | pH initial [3] | pH final [3] | total CO2 loading [3] [mol/mol] | Carbamate [3] [M] | Carbonate [3] [M] | Total CO2 [3] [M] | time after which the absorption rate levels off ([3]; 1 M aqueous solution)
NCC(=O)O [Glycine, glycine] | 0.26 | 0.42 | 0.05 | 0.33 | 0.38 | 10.33 | 9.63 | 0.35 mol/mol | 12.31 | 9.52 | 0.73 | 0.27 | 0.46 | 0.73 | –
N=C(N)N/N=C/c1cccc(/C=N/NC(=N)N)n1 [PyBIG] | – | – | – | – | – | – | – | 0.3-0.35 mol/mol | – | – | – | – | – | – | –
CNCC(=O)O [Sarcosine, sarcosine] | 0.17 | 0.32 | 0.03 | 0.29 | 0.32 | 10.53 | 9.99 | 0.31 mol/mol | 12.92 | 9.99 | 0.63 | 0.17 | 0.46 | 0.63 | about 6 hours
